The supplement of paper PMC8728848
The list shows a part of the results.

How the values were obtained:
Experiment in all cases: glycan array binding signal (z-score within array); higher = stronger binding
Settings in all cases: glycan notation: IUPAC condensed, linker removed
[1] = molecular target: Man(a1-2)Man(a1-3)[Man(a1-2)Man(a1-6)]Man(a1-6)[Man(a1-2)Man(a1-2)Man(a1-3)]Man
How it was run: (§1)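 The Consortium for Functional Glycomics database supplied 3228 glycan arrays, of which those lacking an available protein sequence were dropped. The binding signal, a within-array Z-score, was averaged across arrays of the same protein sequence and across linkers. Negative scores can be read as non-binding.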

[2] = molecular target: Man(a1-2)Man(a1-3)[Man(a1-2)Man(a1-6)]Man(a1-6)[Man(a1-2)Man(a1-2)Man(a1-3)]Man(b1-4)GlcNAc(b1-4)GlcNAc
How it was run: as §1

[3] = molecular target: Man(a1-2)Man(a1-3)[Man(a1-6)]Man(a1-6)[Man(a1-2)Man(a1-3)]Man(b1-4)GlcNAc(b1-4)GlcNAc
How it was run: as §1

[4] = molecular target: Man(a1-2)Man(a1-6)[Man(a1-3)]Man(a1-6)[Man(a1-2)Man(a1-2)Man(a1-3)]Man
How it was run: as §1

[5] = molecular target: Man(a1-2)Man(a1-6)[Man(a1-3)]Man(a1-6)[Man(a1-2)Man(a1-2)Man(a1-3)]Man(b1-4)GlcNAc(b1-4)GlcNAc
How it was run: as §1

Man(a1-3)[Man(a1-6)]Man = molecular target: Man(a1-3)[Man(a1-6)]Man
How it was run: as §1

[6] = molecular target: Man(a1-3)[Man(a1-6)]Man(a1-6)[Man(a1-2)Man(a1-3)]Man(b1-4)GlcNAc(b1-4)GlcNAc
How it was run: as §1

[7] = molecular target: Man(a1-3)[Man(a1-6)]Man(a1-6)[Man(a1-3)]Man
How it was run: as §1

[8] = molecular target: Man(a1-3)[Man(a1-6)]Man(a1-6)[Man(a1-3)]Man(b1-4)GlcNAc(b1-4)GlcNAc
How it was run: as §1

[9] = molecular target: Man(a1-3)[Man(a1-6)]Man(b1-4)GlcNAc(b1-4)GlcNAc
How it was run: as §1

[10] = molecular target: Man(a1-3)[Man(a1-6)]Man(b1-4)GlcNAc(b1-4)[Fuc(a1-6)]GlcNAc
How it was run: as §1

Man(a1-6)Man = molecular target: Man(a1-6)Man
How it was run: as §1

Man(b1-4)GlcNAc = molecular target: Man(b1-4)GlcNAc
How it was run: as §1

MurNAc(b1-4)GlcNAc = molecular target: MurNAc(b1-4)GlcNAc
How it was run: as §1

Neu5Ac(a2-3)Gal = molecular target: Neu5Ac(a2-3)Gal
How it was run: as §1

[11] = molecular target: Neu5Ac(a2-3)Gal(b1-3)GalNAc
How it was run: as §1

[12] = molecular target: Neu5Ac(a2-3)Gal(b1-3)GalNAc(b1-3)Gal(a1-4)Gal(b1-4)Glc
How it was run: as §1

[13] = molecular target: Neu5Ac(a2-3)Gal(b1-3)GalNAc(b1-4)Gal(b1-4)Glc
How it was run: as §1

[14] = molecular target: Neu5Ac(a2-3)Gal(b1-3)GalNAc(b1-4)[Neu5Ac(a2-3)]Gal(b1-4)Glc
How it was run: as §1

[15] = molecular target: Neu5Ac(a2-3)Gal(b1-3)GalNAc(b1-4)[Neu5Ac(a2-8)Neu5Ac(a2-3)]Gal(b1-4)Glc
How it was run: as §1

[16] = molecular target: Neu5Ac(a2-3)Gal(b1-3)GalNAc6S
How it was run: as §1

[17] = molecular target: Neu5Ac(a2-3)Gal(b1-3)GlcNAc
How it was run: as §1

[18] = molecular target: Neu5Ac(a2-3)Gal(b1-3)GlcNAc(b1-2)Man
How it was run: as §1

[19] = molecular target: Neu5Ac(a2-3)Gal(b1-3)GlcNAc(b1-2)Man(a1-3)[GlcNAc(b1-4)][Neu5Ac(a2-3)Gal(b1-3)GlcNAc(b1-2)Man(a1-6)]Man(b1-4)GlcNAc(b1-4)GlcNAc
How it was run: as §1

[20] = molecular target: Neu5Ac(a2-3)Gal(b1-3)GlcNAc(b1-2)Man(a1-3)[Neu5Ac(a2-3)Gal(b1-3)GlcNAc(b1-2)Man(a1-6)]Man(b1-4)GlcNAc(b1-4)GlcNAc
How it was run: as §1

[21] = molecular target: Neu5Ac(a2-3)Gal(b1-3)GlcNAc(b1-2)[Neu5Ac(a2-3)Gal(b1-3)GlcNAc(b1-4)]Man(a1-6)[Neu5Ac(a2-3)Gal(b1-3)GlcNAc(b1-2)Man(a1-3)]Man(b1-4)GlcNAc(b1-4)GlcNAc
How it was run: as §1

[22] = molecular target: Neu5Ac(a2-3)Gal(b1-3)GlcNAc(b1-3)Gal(b1-3)GlcNAc
How it was run: as §1

[23] = molecular target: Neu5Ac(a2-3)Gal(b1-3)GlcNAc(b1-3)Gal(b1-4)GlcNAc
How it was run: as §1

[24] = molecular target: Neu5Ac(a2-3)Gal(b1-3)GlcNAc(b1-3)GalNAc
How it was run: as §1

[25] = molecular target: Neu5Ac(a2-3)Gal(b1-3)GlcNAc(b1-6)GalNAc
How it was run: as §1

B1: Thrombomodulin Extracellular (Mus musculus), P15306 (protein)
chain: MLGIFFLGVLAPASLGLSALAKLQPTGSQCVEHECFALFQGPATFLDASQACQRLQGHLMTVRSSVAADVISLLLSQSSMDLGPWIGLQLPQGCDDPVHLGPLRGFQWVTGDNHTSYSRWARPNDQTAPLCGPLCVTVSTATEAAPGEPAWEEKPCETETQGFLCEFYFTASCRPLTVNTRDPEAAHISSTYNTPFGVSGADFQTLPVGSSAAVEPLGLELVCRAPPGTSEGHWAWEATGAWNCSVENGGCEYLCNRSTNEPRCLCPRDMDLQADGRSCARPVVQSCNELCEHFCVSNAEVPGSYSCMCETGYQLAADGHRCEDVDDCKQGPNPCPQLCVNTKGGFECFCYDGYELVDGECVELLDPCFGSNCEFQCQPVSPTDYRCICAPGFAPKPDEPHKCEMFCNETSCPADCDPNSPTVCECPEGFILDEGSVCTDIDECSQGECFTSECRNFPGSYECICGPDTALAGQISKDCDPIPVREDTKEEEGSGEPPVSPTPGSPTGPPSARPVHSGVLIGISIASLSLVVALLALLCHLRKKQGAARAELEYKCASSAKEVVLQHVRTDRTLQKF
Question: With B1 as the binder, how does the “glycan array binding signal (z-score)” value [1] read?
Answer: 0.249

Question: What about the “glycan array binding signal (z-score)” value [2] of the same binder?
Answer: -0.485

Question: And the “glycan array binding signal (z-score)” value [3]?
Answer: -1.5

Question: And the “glycan array binding signal (z-score)” value [4]?
Answer: 0.499

Question: What about the “glycan array binding signal (z-score)” value [5] of the same binder?
Answer: -0.496

Question: What about the “glycan array binding signal (z-score)” value (Man(a1-3)[Man(a1-6)]Man) of the same binder?
Answer: -0.064

Question: What about the “glycan array binding signal (z-score)” value [6] of the same binder?
Answer: -0.148

Question: What about the “glycan array binding signal (z-score)” value [7] of the same binder?
Answer: 2.92

Question: What about the “glycan array binding signal (z-score)” value [8] of the same binder?
Answer: -0.4

Question: And the “glycan array binding signal (z-score)” value [9]?
Answer: 0.517

Question: What about the “glycan array binding signal (z-score)” value [10] of the same binder?
Answer: 0.808

Question: And the “glycan array binding signal (z-score)” value (Man(a1-6)Man)?
Answer: -0.543

Question: What about the “glycan array binding signal (z-score)” value (Man(b1-4)GlcNAc) of the same binder?
Answer: -0.999

Question: And the “glycan array binding signal (z-score)” value (MurNAc(b1-4)GlcNAc)?
Answer: 0.172

Question: And the “glycan array binding signal (z-score)” value (Neu5Ac(a2-3)Gal)?
Answer: -0.229

Question: What about the “glycan array binding signal (z-score)” value [11] of the same binder?
Answer: 0.098

Question: And the “glycan array binding signal (z-score)” value [12]?
Answer: -1.15

Question: And the “glycan array binding signal (z-score)” value [13]?
Answer: -0.174

Question: And the “glycan array binding signal (z-score)” value [14]?
Answer: -0.94

Question: What about the “glycan array binding signal (z-score)” value [15] of the same binder?
Answer: -0.672

Question: And the “glycan array binding signal (z-score)” value [16]?
Answer: -1.24

Question: And the “glycan array binding signal (z-score)” value [17]?
Answer: -0.058

Question: And the “glycan array binding signal (z-score)” value [18]?
Answer: 0.039

Question: What about the “glycan array binding signal (z-score)” value [19] of the same binder?
Answer: -0.635

Question: And the “glycan array binding signal (z-score)” value [20]?
Answer: 2.55

Question: And the “glycan array binding signal (z-score)” value [21]?
Answer: -0.011

Question: What about the “glycan array binding signal (z-score)” value [22] of the same binder?
Answer: 0.167

Question: What about the “glycan array binding signal (z-score)” value [23] of the same binder?
Answer: 0.433

Question: What about the “glycan array binding signal (z-score)” value [24] of the same binder?
Answer: 1.75

Question: What about the “glycan array binding signal (z-score)” value [25] of the same binder?
Answer: 1.49
